The nature of the assay: qHTS Assay for Lipid Storage Modulators in Drosophila S3 Cells.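 As to cell number change: cells counted by Cell Tracker Red CMTPX staining in the red channel.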 Particulars: BODIPY lipid droplet fluorescence, 18-24 h; for cell number change: measured here: cell count max response, cells fed with added oleic acid. The essentials: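 Drosophila S3 cells loaded with oleic acid (400 uM, as added) and compounds at several concentrations; lipid droplets imaged by 488-nm laser-scanning cytometry, 500–530 nm intensity and object ratio to cell channel. Percent activity normalized to 20 uM Triacsin C.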
In general terms: In qHTS, concentration-response curves come from the screen itself.

Setting [1] is: measured here: lipid fluorescence (Fed channel) AC50, cells fed with added oleic acid.
Where [2] appears, read: measured here: cell number channel AC50, cells fed with added oleic acid.

SMILES strings stand for the structures. This is one part of the list. Further columns of the screen follow, without active or inactive calls. The list favours compounds with an active or inconclusive main result. Potencies come from curve fits of mixed quality, noted in brackets.

Take `CN(Cc1ccc(Cl)s1)C(=O)CN1C(=O)N(C)C2(CCCCC2)C1=O`: the cell number change stood at 1.82%.

For the compound `COc1ccccc1CNS(=O)(=O)c1ccc(-n2cnnn2)c(C)c1`, the cell number change was 10.3%. Besides, the AC50 under setting [1] was 6.51 µM [falling, partial curve].

With `COc1ccc(CCN2C(=O)c3[nH]nc(-c4ccccc4O)c3C2c2cccc(O)c2)cc1OC` (configuration not stated), the cell number change turned out to be 0.753%. For the same compound, the AC50 under setting [1] is 0.291 µM [rising, full curve, poor fit].

As for `CC(=O)c1ccc(NC(=O)C2CCCN2S(=O)(=O)c2cccs2)cc1` (configuration not stated), the cell number change was 20.1%.

In the case of `O=[N+]([O-])c1ccc2nc(NCCCO)nc(-c3ccccc3)c2c1`, the cell number change turned out to be 31.8%. Moreover, the AC50 under setting [2] was 23.1 µM [rising, single point]. Further, under setting [1], the AC50 is 29.1 µM [rising, single point].

For the compound `CCN(C(=O)COC(=O)c1cccs1)c1c(N)n(Cc2ccccc2)c(=O)[nH]c1=O`, the cell number change is 2.09%. Also, the AC50 under setting [1] was 0.0731 µM [falling, full curve, poor fit].

Take `CCCCn1c(N)c(N(CC(C)C)C(=O)CSc2nnc(C)n2-c2ccc(OC)cc2)c(=O)[nH]c1=O`: the cell number change is 3.01%. Moreover, the AC50 under setting [2] is 1.46 µM [falling, partial curve]. Further, the AC50 under setting [1] is 6.51 µM [falling, single point].

As to `Cc1ncoc1C(=O)N1CCCC(C(=O)c2ccc(Oc3ccccc3)cc2)C1` (configuration not stated), the cell number change was -38.4%. Further, the AC50 under setting [2] is 16.4 µM [falling, partial curve]. Besides, under setting [1], the AC50 was 11.6 µM [falling, partial curve, poor fit].

Regarding `OCC[C@@H]1C[C@@H](O)[C@H](O)[C@]2(Cc3ccccc3CCO2)O1`, the cell number change is 8.68%. Besides, the AC50 under setting [1] is 29.1 µM [rising, single point].

For the compound `Cc1ccc(S(=O)(=O)Nc2nc3ccccc3nc2Nc2cccc(S(=O)(=O)N3CCCC3)c2)cc1`, the AC50 was 1.84 µM [falling, partial curve] under setting [2] and 6.51 µM [falling, single point] under setting [1].

On to `COc1cc(S(=O)(=O)N(Cc2cccs2)CC2CCCO2)ccc1-n1cnnn1` (configuration not stated), for which the cell number change is 1.41%. Further, the half-maximal activity concentration (AC50) under setting [1] was 2.31 µM [falling, partial curve].

Take `CCN(C(=O)Cn1c(=O)oc2ccccc21)c1c(N)n(Cc2ccccc2)c(=O)[nH]c1=O`: the cell number change was -10.2%.

Consider `Cc1c(C(=O)OC(C)C)sc(NC(=O)C2CCCO2)c1C(=O)OC(C)C` (configuration not stated), for which the cell number change was -3.71%. For the same compound, the AC50 under setting [2] was 6.51 µM [rising, single point]. Also, the AC50 under setting [1] was 0.259 µM [rising, full curve, poor fit].

With `Cc1cc(=O)oc2c(CN3CCCC3)c(O)c(Cl)cc12`, the cell number change is -40.3%. For the same compound, the AC50 under setting [1] was 29.1 µM [rising, single point].

On to `COc1ccccc1NC(=S)N1CCN(c2cccc(C)c2C)CC1`, for which the cell number change is -38.1%. The AC50 under setting [2] is 3.66 µM [falling, single point]. For the same compound, the AC50 under setting [1] was 16.4 µM [falling, single point].

For orientation: AC50 means the midpoint of the concentration-response curve, whichever way the signal moves. A lower AC50 goes with greater potency.

The values above are taken from PubChem BioAssay AID2685 (National Center for Advancing Translational Sciences (NCATS), 2010).
